# Reference: patent US20230172894A1, “COMBINATION TREATMENT FOR FUMARATE-RELATED DISEASES” (IMCYSE SA, priority 2020, published 2023)
# Like-named read-outs stand apart in the source and are kept apart here. Not every detail of the peptide structures is certain; ends, links or a residue may be inferred. No end group written: not given here.
# Legend:
# [1] = system: experimental auto-immune encephalomyelitis (EAE) development in mice; settings: Example 4, vs negative control, combinations also vs peptides only or BG-12 only
# From the text: Example 4: Effect of the therapeutic administration of an immunogenic peptide comprising a human MOG201-212 MHCII T cell epitope linked to a KHCPYC oxidoreductase motif in combination with dimethyl fumarate (BG-12, […]™) on experimental auto-immune encephalomyelitis (EAE) development in mice.
# The study used a total of 96 female C57BL/6 mice (Taconic Biosciences, 9 weeks old on Day 0). Mice were acclimated for 7 days prior to the first injection. Mice were assigned to groups in a balanced manner to achieve similar average weight across the groups at the start of the study.
# Treatment 1 was administered once on each of the days indicated in Table 5, s.c., at a volume of 0.05 mL/site, each mouse receiving injection at two sites, for a total of 0.1 mL/mouse/dosing day. IMCY-0189 or P4 peptide total dose was 30 μg per administration.
# (§1) BG-12 was dosed at 100 mg/kg.
# (§2) All dosing were done at the same time (+/−1 hour) each dosing day. For the BID groups there were no less than 10 and no more than 14 hours between doses.
# Lyophilized immunogenic peptide P4 with the sequence […] (SEQ ID NO: 176), comprising an oxidoreductase motif KHCPYC (SEQ ID NO: 77), a linker VRY, a human Myelin Oligodendrocyte Glycoprotein (MOG201-212) MHCII T cell epitope […] (SEQ ID NO: 165) and a flanking sequence TLFKK (SEQ ID NO: 267) (Smart Bioscience) was solubilized immediately before use. Lyophilized P4 was thawed at room temperature for 10 minutes, resuspended in Na Acetate buffer 50 mM NaCl 0.9% pH 5.4 and incubated at room temperature for 10 minutes. Reconstituted peptide was then mixed with Imject™ Alum Adjuvant before injection.
# Treatment 2 was prepared as described in example 2.
# EAE induction, scoring and statistical analysis were performed as described in example 2.
# (§3) EAE development was evaluated by comparing clinical EAE readouts for all groups to the negative control (Saline/Vehicle) group.
# [2] = system: experimental auto-immune encephalomyelitis (EAE) development in mice; experiment: Example 4: serum neurofilament light (NF-L) levels in EAE mice; assay type: in vivo, female C57BL/6 mice; settings: Day 28 serum, vs negative control
# Protocol: On Day 28, blood was collected from all mice into gel clot activator tubes and allowed to clot at room temperature for ˜30 minutes. Blood is then centrifuged at ˜10000 g for 5 minutes. Serum was transferred into Eppendorf tubes and stored at −80° C. until shipment to Quanterix™. Serum Neurofilament light (NF-L) protein levels were quantified using Simoa® NF-light Advantage kit as described in example 1.
# Serum neurofilaments levels were quantified as described in example 3.
# [3] = system: experimental auto-immune encephalomyelitis (EAE) development in mice; settings: Example 2, single agents vs negative control, combinations vs peptides only or BG-12 only
# From the text: Example 2: Effect of the therapeutic administration of an immunogenic peptide comprising a MOG35-55 MHCII T cell epitope linked or not to an HCPYC oxidoreductase motif in combination with dimethyl fumarate (BG-12, […]™) on experimental auto-immune encephalomyelitis (EAE) development in mice.
# The study used a total of 96 female C57BL/6 mice (Taconic Biosciences, 10 weeks old on Day 0). Mice were acclimated for 14 days prior to the first injection. Mice were assigned to groups in a balanced manner to achieve similar average weight across the groups at the start of the study.
# Treatment 1 was administered once on each of the days indicated in Table 3, s.c., at a volume of 0.05 mL/site, each mouse receiving injection at two sites, for a total of 0.1 mL/mouse/dosing day. IMCY-0189 or MOG35-55 peptide total dose was 30 μg per administration.
# as §1, §2
# Lyophilized mouse MOG35-55 peptide with the sequence […] (SEQ ID NO:205), comprising the mouse Myelin Oligodendrocyte Glycoprotein (MOG35-55) MHCII T cell epitope […] (SEQ ID NO:169), was solubilized immediately before use. Lyophilized MOG35-55 peptide was thawed at room temperature for 10 minutes, resuspended in Na Acetate buffer 50 mM NaCl 0.9% pH 5.4 and incubated at room temperature for 10 minutes. Reconstituted MOG35-55 peptide was then mixed with Imject™ Alum Adjuvant before injection. Note that the positions 35 to 55 refer to the mature protein, i.e. after cleavage of the signal peptide (AA 1-29), defined by SEQ ID NO: 208. In the full-length amino acid sequence of MOG (SEQ ID NO: 184), said peptide would be at positions 64-84.
# Lyophilized IMCY-0189 was thawed at room temperature for 10 minutes, resuspended in Na Acetate buffer 50 mM NaCl 0.9% pH 5.4 and incubated at room temperature for 10 minutes. Reconstituted peptide was then mixed with Imject™ Alum Adjuvant before injection.
# For Treatment 2, vehicle was 0.5% HPMC, 0.2% Tween 20, and 50 mM citrate buffer at pH 4. BG-12 (Santa Cruz Biotechnology, sc-239774) and was prepared at least every 2 weeks. At each preparation the required amount of BG-12 was weighed out into a mortar and triturated with a pestle. Vehicle was then added in small increments and mixed until the final volume was reached. The material was then vortexed and sonicated in a water bath until a homogeneous suspension was obtained. Formulated BG-12 was stored at 4° C., stirring continuously.
# EAE induction, scoring and statistical analysis were performed as described in example 1.
# as §3
# [4] = peptide 30 μg/Alum s.c. days 4, 9, 14, 19, BG-12 100 mg/kg p.o. BID days 0 to 27
compound,measurement,setting,value
CC[C@H](C)[C@H](NC(=O)[C@H](CCCCN)NC(=O)[C@H](Cc1c[nH]c2ccccc12)NC(=O)[C@H](CO)NC(=O)[C@@H]1CCCN1C(=O)[C@@H](NC(=O)[C@H](CCCNC(=N)N)NC(=O)[C@H](CC(C)C)NC(=O)[C@H](Cc1ccccc1)NC(=O)[C@H](Cc1ccc(O)cc1)NC(=O)[C@H](CCCNC(=N)N)NC(=O)[C@@H](NC(=O)[C@H](CS)NC(=O)[C@H](Cc1ccc(O)cc1)NC(=O)[C@@H]1CCCN1C(=O)[C@H](CS)NC(=O)[C@H](Cc1c[nH]cn1)NC(=O)[C@@H](N)CCCCN)C(C)C)C(C)C)C(=O)N[C@H](C(=O)N[C@@H](CC(C)C)C(=O)N[C@@H](Cc1ccccc1)C(=O)N[C@@H](CCCCN)C(=O)N[C@@H](CCCCN)C(=O)O)[C@@H](C)O [P4],disease onset,[1]; [4],postponed disease onset
same,AUC (area under the curve) of EAE scores,[1],statistically significant reduced
same,MMS (mean maximal score),[1],statistically significant reduced
same,end score (clinical EAE score 0-5),[1],reduced end score
same,serum NF-L levels,[2],statistically significant reduced NF-L levels
MEVGWYRSPFSRVVHLYRNGK [MOG35-55 peptide],disease onset,[3]; [4],postponed disease onset
same,AUC (area under the curve) of EAE scores,[3],statistically significant reduced
same,MMS (mean maximal score),[3],statistically significant reduced
same,end score (clinical EAE score 0-5),[3],reduced end score
